## Cleaved PARP in drug-treated melanoma cells

Data from the primary screen of doi:10.1371/journal.pone.0140310, rounded.

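The test systems are human melanoma cell lines, treated with two drugs together for 72 h and then stained and imaged. Values are the share of nuclei positive for cleaved PARP as a percentage of the same share in the DMSO control: 100 is the control level, higher means more apoptosis. Every drug was used at one fixed concentration, the higher of two screened. These are primary screening values without error estimates. The marker varies much from line to line, for technical or biological reasons.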
Only some of the drugs and lines screened are listed, without regard to their results.

Drugs:
vismodegib: CS(=O)(=O)c1ccc(C(=O)Nc2ccc(Cl)c(-c3ccccn3)c2)c(Cl)c1 at 5 µM
pazopanib: Cc1ccc(Nc2nccc(N(C)c3ccc4c(C)n(C)nc4c3)n2)cc1S(N)(=O)=O at 2 µM
vatalanib: Clc1ccc(Nc2nnc(Cc3ccncc3)c3ccccc23)cc1 at 10 µM
NVP-BEZ235: Cn1c(=O)n(-c2ccc(C(C)(C)C#N)cc2)c2c3cc(-c4cnc5ccccc5c4)ccc3ncc21 at 0.02 µM
JZL184: O=C(Oc1ccc([N+](=O)[O-])cc1)N1CCC(C(O)(c2ccc3c(c2)OCO3)c2ccc3c(c2)OCO3)CC1 at 5 µM
dasatinib: Cc1nc(Nc2ncc(C(=O)Nc3c(C)cccc3Cl)s2)cc(N2CCN(CCO)CC2)n1 at 0.02 µM
everolimus: CO[C@H]1C[C@@H]2CC[C@@H](C)[C@@](O)(O2)C(=O)C(=O)N2CCCC[C@H]2C(=O)O[C@H]([C@H](C)C[C@@H]2CC[C@@H](OCCO)[C@H](OC)C2)CC(=O)[C@H](C)/C=C(\C)[C@@H](O)[C@@H](OC)C(=O)[C@H](C)C[C@H](C)/C=C/C=C/C=C/1C at 0.1 µM
darinaparsin: C[As](C)SC[C@H](NC(=O)CC[C@H](N)C(=O)O)C(=O)NCC(=O)O at 2 µM
PLX4720: CCCS(=O)(=O)Nc1ccc(F)c(C(=O)c2c[nH]c3ncc(Cl)cc23)c1F at 0.4 µM
etoposide: COc1cc([C@@H]2c3cc4c(cc3[C@@H](O[C@@H]3O[C@@H]5CO[C@@H](C)O[C@H]5[C@H](O)[C@H]3O)[C@H]3COC(=O)[C@H]23)OCO4)cc(OC)c1O at 0.1 µM

Combination,WM1745
etoposide + vismodegib,85.7
dasatinib + vismodegib,239
dasatinib + pazopanib,251
everolimus + pazopanib,206
vatalanib + NVP-BEZ235,163
JZL184 + dasatinib,249
NVP-BEZ235 + PLX4720,128
darinaparsin + vatalanib,427
etoposide + dasatinib,242
everolimus + PLX4720,105
darinaparsin + vismodegib,71.8
darinaparsin + NVP-BEZ235,104
PLX4720 + vatalanib,447
PLX4720 + vismodegib,111
PLX4720 + pazopanib,145
etoposide + everolimus,108
NVP-BEZ235 + vismodegib,86.3
vatalanib + everolimus,122
darinaparsin + PLX4720,81.7
etoposide + pazopanib,109
everolimus + vismodegib,90.2
vismodegib + pazopanib,82.3
NVP-BEZ235 + pazopanib,108
JZL184 + darinaparsin,88.1
vatalanib + pazopanib,115
NVP-BEZ235 + everolimus,143
dasatinib + darinaparsin,568
vatalanib + etoposide,108
PLX4720 + etoposide,238
everolimus + darinaparsin,135
etoposide + darinaparsin,93.9
dasatinib + NVP-BEZ235,201

The first 4 entries again:

| Combination | WM1745 |
|---|---|
| etoposide + vismodegib | 85.7 |
| dasatinib + vismodegib | 239 |
| dasatinib + pazopanib | 251 |
| everolimus + pazopanib | 206 |